± gives the uncertainty stated by the source. The uncertainty is large for many entries.
Assay: self-splicing fitness, log relative to wild type (ln ratio); higher = more splicing; Tetrahymena group I intron in knt gene, E. coli kanamycin selection, DiMSum; sequences stand for … in CUCUCU…GGAGGGAAAAGUUAUCAGGCAUGCACCUGGUAGCUAGUCUUUAAACCAAUAGAUUGCAUCGGUUUAAAAGGCAAGACCGUCAAAUUGCGGGAAAGGGGUCAACAGCCGUUCAGUACCAAGUCUCAGGGGAAACUUUGAGAUGGCCUUGCAAAGGGUAUGGUAAUAAGCUGACGGACAUGGUCCUAACCACGCAGCCAAGUCCUAAGUCAACAGAUCUUCUGUUGAUAUGGAUGCAGUUCACAGACUAAAUGUCGGUCGGGGAAGAUGUAUUCUUCUCAUAAGAUAUAGUCGGACCUCUCCUUAAUGGGAGCUAGCGGAUGAAGUGAUGCAACACUGGAGCCGCUGGGAACUAAUUUGUAUGCGAAAGUAUAUUGAUUAGUUUUGGAGUACUCGUGGUCG
In short: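 Pooled colonies went to amplicon sequencing on an Illumina HiSeq 2500 after six replicate transformations. The plates were LB agar with 100 μg/mL carbenicillin, 50 μM IPTG and 0.2% rhamnose, with or without 25 μg/mL kanamycin, incubated overnight at 37°C or 30°C. The E. coli BL21(DE3) library had all eight P1ex-region intron nucleotides randomised, the intron placed in the knt kanamycin-resistance gene on pET-22b(+). DiMSum fitness is the error-weighted combination of replicate fold changes, kanamycin against none, normalised to wild type.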

CGCCAGCAAUAUUACGAAUA
self-splicing fitness (ln) (37 °C): -2.69 ± 0.54

GCAUAGCAAUAUUACGGCAC
self-splicing fitness (ln) (30 °C): -1.15 ± 0.14
self-splicing fitness (ln) (37 °C): -0.425 ± 0.15

AGAGAGCAAUAUUACGACAC
self-splicing fitness (ln) (30 °C): -4.19 ± 0.6

GUCAAGCAAUAUUACGGGAC
self-splicing fitness (ln) (37 °C): -3.99 ± 0.51

AAAGAGCAAUAUUACGGGGU
self-splicing fitness (ln) (30 °C): -2.63 ± 0.21
self-splicing fitness (ln) (37 °C): -2.18 ± 0.24

UAGAAGCAAUAUUACGUCCC
self-splicing fitness (ln) (30 °C): -2.46 ± 0.63

UGAUAGCAAUAUUACGAGAC
self-splicing fitness (ln) (30 °C): -4.06 ± 0.53

AUGGAGCAAUAUUACGAUAC
self-splicing fitness (ln) (30 °C): -4.06 ± 0.73

CGGCAGCAAUAUUACGUUAU
self-splicing fitness (ln) (30 °C): -2.5 ± 0.17
self-splicing fitness (ln) (37 °C): -2.56 ± 0.21

ACGCAGCAAUAUUACGCCAC
self-splicing fitness (ln) (30 °C): -5.11 ± 0.71

CGAGAGCAAUAUUACGCAGG
self-splicing fitness (ln) (30 °C): -4.08 ± 0.52

CCUAAGCAAUAUUACGUCUG
self-splicing fitness (ln) (30 °C): -2.15 ± 0.2
self-splicing fitness (ln) (37 °C): -2 ± 0.24

CAAGAGCAAUAUUACGAGAA
self-splicing fitness (ln) (30 °C): -1.27 ± 0.63
self-splicing fitness (ln) (37 °C): -0.663 ± 0.68

UCGGAGCAAUAUUACGUUCA
self-splicing fitness (ln) (30 °C): -2.2 ± 0.53

AAUGAGCAAUAUUACGGCCA
self-splicing fitness (ln) (30 °C): -2.42 ± 0.53

CCCGAGCAAUAUUACGCGAA
self-splicing fitness (ln) (30 °C): -3.27 ± 0.53

UGGGAGCAAUAUUACGCUCA
self-splicing fitness (ln) (30 °C): -2.89 ± 0.61

CCAGAGCAAUAUUACGCCGG
self-splicing fitness (ln) (30 °C): -3.48 ± 0.6
self-splicing fitness (ln) (37 °C): -3.04 ± 0.74

GGGUAGCAAUAUUACGACCU
self-splicing fitness (ln) (37 °C): -2.59 ± 0.55

ACGGAGCAAUAUUACGGCUU
self-splicing fitness (ln) (37 °C): -2.46 ± 0.77

AAGCAGCAAUAUUACGAAUU
self-splicing fitness (ln) (30 °C): -0.851 ± 0.069
self-splicing fitness (ln) (37 °C): 0.12 ± 0.099

CACGAGCAAUAUUACGUAUA
self-splicing fitness (ln) (30 °C): -3.69 ± 0.76

UCAGAGCAAUAUUACGACCC
self-splicing fitness (ln) (30 °C): -1.21 ± 0.59

CCGUAGCAAUAUUACGUACU
self-splicing fitness (ln) (30 °C): -4.01 ± 0.74

GACGAGCAAUAUUACGUCGG
self-splicing fitness (ln) (30 °C): -4.28 ± 0.73

GCAGAGCAAUAUUACGUCAU
self-splicing fitness (ln) (30 °C): -4.16 ± 0.72

UAUAAGCAAUAUUACGCUGC
self-splicing fitness (ln) (37 °C): -3.08 ± 0.52

CCGAAGCAAUAUUACGGAGC
self-splicing fitness (ln) (30 °C): -1.9 ± 0.33
self-splicing fitness (ln) (37 °C): -2.74 ± 0.44

CGGGAGCAAUAUUACGCUUG
self-splicing fitness (ln) (30 °C): -4.23 ± 0.6

UCAGAGCAAUAUUACGUCCC
self-splicing fitness (ln) (37 °C): -0.0341 ± 0.92

CGUAAGCAAUAUUACGAAAC
self-splicing fitness (ln) (37 °C): 0.038 ± 0.59

CGGUAGCAAUAUUACGGGCC
self-splicing fitness (ln) (37 °C): -3.02 ± 0.53

GUAUAGCAAUAUUACGAGAA
self-splicing fitness (ln) (30 °C): -1.88 ± 0.79

GUCAAGCAAUAUUACGCGCG
self-splicing fitness (ln) (30 °C): -2 ± 0.13
self-splicing fitness (ln) (37 °C): -1.32 ± 0.15

CGAGAGCAAUAUUACGUAAC
self-splicing fitness (ln) (30 °C): -1.32 ± 0.54

GGCAAGCAAUAUUACGUCCC
self-splicing fitness (ln) (30 °C): -3.54 ± 1

AGGGAGCAAUAUUACGGCAG
self-splicing fitness (ln) (30 °C): -4.78 ± 0.72
self-splicing fitness (ln) (37 °C): -3.29 ± 0.53

UUCAAGCAAUAUUACGAACC
self-splicing fitness (ln) (30 °C): -4.52 ± 1
self-splicing fitness (ln) (37 °C): -2.2 ± 1.1

CCACAGCAAUAUUACGUGUG
self-splicing fitness (ln) (30 °C): -3.61 ± 0.095
self-splicing fitness (ln) (37 °C): -2.36 ± 0.092

UAGAAGCAAUAUUACGAAGC
self-splicing fitness (ln) (30 °C): -4.07 ± 0.73

AAAGAGCAAUAUUACGGCGC
self-splicing fitness (ln) (30 °C): -2.27 ± 0.2
self-splicing fitness (ln) (37 °C): -0.545 ± 0.21

CCAGAGCAAUAUUACGCUUC
self-splicing fitness (ln) (37 °C): -4.72 ± 0.72

GUGGAGCAAUAUUACGCAGG
self-splicing fitness (ln) (30 °C): -3.8 ± 0.52

CGGAAGCAAUAUUACGCUUC
self-splicing fitness (ln) (37 °C): -3.2 ± 0.52

AGCAAGCAAUAUUACGUAUU
self-splicing fitness (ln) (30 °C): -3.02 ± 0.14
self-splicing fitness (ln) (37 °C): -1.24 ± 0.11

UACUAGCAAUAUUACGCCGC
self-splicing fitness (ln) (30 °C): -3.39 ± 0.54
self-splicing fitness (ln) (37 °C): -2.13 ± 0.65

UGAGAGCAAUAUUACGUGUC
self-splicing fitness (ln) (30 °C): -4.82 ± 1
self-splicing fitness (ln) (37 °C): -2.26 ± 0.57

CCCCAGCAAUAUUACGUACC
self-splicing fitness (ln) (30 °C): -4.07 ± 0.18
self-splicing fitness (ln) (37 °C): -3.36 ± 0.35

GGGGAGCAAUAUUACGCUAG
self-splicing fitness (ln) (37 °C): -3.27 ± 0.52

CAAUAGCAAUAUUACGUGCU
self-splicing fitness (ln) (30 °C): -4.96 ± 0.72

GUGGAGCAAUAUUACGGGCU
self-splicing fitness (ln) (37 °C): -1.89 ± 0.59

CCCGAGCAAUAUUACGCAGC
self-splicing fitness (ln) (30 °C): -2.98 ± 0.61

AAAUAGCAAUAUUACGCCGC
self-splicing fitness (ln) (30 °C): -2.99 ± 0.56

UGCGAGCAAUAUUACGAUGG
self-splicing fitness (ln) (30 °C): -3.43 ± 0.2
self-splicing fitness (ln) (37 °C): -1.93 ± 0.17

CUUAAGCAAUAUUACGAGAU
self-splicing fitness (ln) (30 °C): -2.92 ± 0.22
self-splicing fitness (ln) (37 °C): -1.59 ± 0.2

UCUUAGCAAUAUUACGAGUC
self-splicing fitness (ln) (30 °C): -3.76 ± 1

UAGGAGCAAUAUUACGCAAC
self-splicing fitness (ln) (30 °C): 0.845 ± 0.77
self-splicing fitness (ln) (37 °C): -2.08 ± 1.1

GGAGAGCAAUAUUACGGGCC
self-splicing fitness (ln) (37 °C): -2.56 ± 0.76

UCCAAGCAAUAUUACGGGGA
self-splicing fitness (ln) (30 °C): -2.58 ± 0.15
self-splicing fitness (ln) (37 °C): -1.27 ± 0.1

UUCGAGCAAUAUUACGAAGU
self-splicing fitness (ln) (30 °C): -3.6 ± 1

CCGAAGCAAUAUUACGCCCA
self-splicing fitness (ln) (37 °C): -1.02 ± 0.59

GUUAAGCAAUAUUACGAGUA
self-splicing fitness (ln) (30 °C): -2.5 ± 0.12
self-splicing fitness (ln) (37 °C): -1.32 ± 0.095

GGAGAGCAAUAUUACGCCCA
self-splicing fitness (ln) (30 °C): -2.51 ± 0.65

CCUCAGCAAUAUUACGUCCC
self-splicing fitness (ln) (30 °C): -3.4 ± 1.1
self-splicing fitness (ln) (37 °C): -1.76 ± 0.68

GGCUAGCAAUAUUACGUUAC
self-splicing fitness (ln) (30 °C): -1.55 ± 0.069
self-splicing fitness (ln) (37 °C): -0.888 ± 0.093

UCUAAGCAAUAUUACGACGG
self-splicing fitness (ln) (30 °C): 0.00998 ± 0.076
self-splicing fitness (ln) (37 °C): 0.286 ± 0.11

CGCGAGCAAUAUUACGCGCU
self-splicing fitness (ln) (30 °C): -3.63 ± 1

GGUUAGCAAUAUUACGAAAC
self-splicing fitness (ln) (30 °C): -1.08 ± 0.87

ACGGAGCAAUAUUACGAAGA
self-splicing fitness (ln) (30 °C): -3.03 ± 1.1

GAGGAGCAAUAUUACGAGUC
self-splicing fitness (ln) (30 °C): -1.93 ± 0.82
self-splicing fitness (ln) (37 °C): -1.47 ± 1.2

UGGGAGCAAUAUUACGUGAU
self-splicing fitness (ln) (30 °C): -0.572 ± 1.2

UGGGAGCAAUAUUACGGUAC
self-splicing fitness (ln) (30 °C): -2.94 ± 0.69
self-splicing fitness (ln) (37 °C): -3 ± 1

UCCAAGCAAUAUUACGCCCC
self-splicing fitness (ln) (30 °C): -0.572 ± 1.2

CGGUAGCAAUAUUACGCAAC
self-splicing fitness (ln) (30 °C): -4.33 ± 1

GCUCAGCAAUAUUACGAGGU
self-splicing fitness (ln) (30 °C): -1.06 ± 0.12
self-splicing fitness (ln) (37 °C): -2.08 ± 0.23

CUCGAGCAAUAUUACGCACU
self-splicing fitness (ln) (37 °C): -2.72 ± 0.53

CAGGAGCAAUAUUACGGGGC
self-splicing fitness (ln) (37 °C): -3.17 ± 0.74

GAAGAGCAAUAUUACGCUCC
self-splicing fitness (ln) (37 °C): -1.92 ± 0.66

UCGUAGCAAUAUUACGAUUC
self-splicing fitness (ln) (30 °C): -1.07 ± 0.5
self-splicing fitness (ln) (37 °C): -1.83 ± 1.1

GUUGAGCAAUAUUACGUCAA
self-splicing fitness (ln) (37 °C): -3.59 ± 0.52

CGCUAGCAAUAUUACGAUUC
self-splicing fitness (ln) (30 °C): -3.29 ± 0.36
self-splicing fitness (ln) (37 °C): -2.12 ± 0.21

CUUGAGCAAUAUUACGGUUC
self-splicing fitness (ln) (30 °C): -3.56 ± 0.35
self-splicing fitness (ln) (37 °C): -2.51 ± 0.36

CCGAAGCAAUAUUACGUGAC
self-splicing fitness (ln) (30 °C): -4.15 ± 0.52

GGGGAGCAAUAUUACGCGGC
self-splicing fitness (ln) (37 °C): -1.24 ± 0.49

UAUGAGCAAUAUUACGUCUC
self-splicing fitness (ln) (37 °C): -3.77 ± 1

CGCUAGCAAUAUUACGCGUG
self-splicing fitness (ln) (30 °C): -2.8 ± 0.13
self-splicing fitness (ln) (37 °C): -1.77 ± 0.12

CCGAAGCAAUAUUACGUAUA
self-splicing fitness (ln) (30 °C): -1.61 ± 0.76

UCAGAGCAAUAUUACGUACA
self-splicing fitness (ln) (30 °C): -4.71 ± 1
self-splicing fitness (ln) (37 °C): -1.61 ± 0.6

UGGAAGCAAUAUUACGGGCC
self-splicing fitness (ln) (30 °C): -4.05 ± 1

UUAAAGCAAUAUUACGCAGC
self-splicing fitness (ln) (30 °C): -4.3 ± 0.59

CCGUAGCAAUAUUACGAAAA
self-splicing fitness (ln) (30 °C): -1.66 ± 0.52

CACGAGCAAUAUUACGCUGC
self-splicing fitness (ln) (30 °C): -3.63 ± 1
self-splicing fitness (ln) (37 °C): -3.21 ± 0.74

GGCCAGCAAUAUUACGGCAA
self-splicing fitness (ln) (30 °C): -0.216 ± 0.082
self-splicing fitness (ln) (37 °C): -0.645 ± 0.087

GAACAGCAAUAUUACGUAUU
self-splicing fitness (ln) (30 °C): -1.57 ± 0.063
self-splicing fitness (ln) (37 °C): -0.99 ± 0.075

UGCCAGCAAUAUUACGUAGC
self-splicing fitness (ln) (30 °C): -3.9 ± 0.37
self-splicing fitness (ln) (37 °C): -1.64 ± 0.17

UGCUAGCAAUAUUACGUACC
self-splicing fitness (ln) (30 °C): -2.44 ± 1.1

From the supplement of paper PMC7877785
